This is one part of the list. Residues, ends and D or L forms follow the SMILES beside them. *: point of attachment. Cbz = O=C(OCc1ccccc1)*
What was measured:
Test in all cases: log2 fold change, soluble protein after heating vs DMSO (PISA); higher = thermal stabilisation; K562 cells, 10 uM, 30 min; active = over 0.2 and 3.5 SD of the protein, either way, in both replicates (recomputed)
IRAK-1-4 Inhibitor I = compound: C1COCCN1CCN2C3=CC=CC=C3N=C2NC(=O)C4=CC(=CC=C4)[N+](=O)[O-] [IRAK-1-4 Inhibitor I]
Procedure, shortened: (§1)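 For each measurement, 10 μM compound was applied for 30 min to K562 cells at 2×10^6 cells/mL. Aliquots were heated for 3 min across 48°C-58°C, pooled, and extracted in PBS with 0.5% NP-40 at 4°C; the supernatant after 21,000xg for 90 min was soluble protein. This was quantified by TMTpro 16plex LC-MS/MS with channel sums equalised, and thermal stability was reported relative to control samples from duplicates, on a log2 fold-change scale.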

Amino acid sequences for entries named in this document (tags omitted). A change or cut given only in a name is not applied to a line headed by its entry.
UniProt P08962, whole entry, looked up: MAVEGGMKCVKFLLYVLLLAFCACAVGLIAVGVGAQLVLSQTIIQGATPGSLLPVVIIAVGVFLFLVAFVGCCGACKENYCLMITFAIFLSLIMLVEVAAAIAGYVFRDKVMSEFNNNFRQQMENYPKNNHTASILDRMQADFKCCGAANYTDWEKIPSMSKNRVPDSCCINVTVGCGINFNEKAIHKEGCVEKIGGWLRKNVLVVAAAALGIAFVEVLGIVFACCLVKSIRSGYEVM
UniProt P30305: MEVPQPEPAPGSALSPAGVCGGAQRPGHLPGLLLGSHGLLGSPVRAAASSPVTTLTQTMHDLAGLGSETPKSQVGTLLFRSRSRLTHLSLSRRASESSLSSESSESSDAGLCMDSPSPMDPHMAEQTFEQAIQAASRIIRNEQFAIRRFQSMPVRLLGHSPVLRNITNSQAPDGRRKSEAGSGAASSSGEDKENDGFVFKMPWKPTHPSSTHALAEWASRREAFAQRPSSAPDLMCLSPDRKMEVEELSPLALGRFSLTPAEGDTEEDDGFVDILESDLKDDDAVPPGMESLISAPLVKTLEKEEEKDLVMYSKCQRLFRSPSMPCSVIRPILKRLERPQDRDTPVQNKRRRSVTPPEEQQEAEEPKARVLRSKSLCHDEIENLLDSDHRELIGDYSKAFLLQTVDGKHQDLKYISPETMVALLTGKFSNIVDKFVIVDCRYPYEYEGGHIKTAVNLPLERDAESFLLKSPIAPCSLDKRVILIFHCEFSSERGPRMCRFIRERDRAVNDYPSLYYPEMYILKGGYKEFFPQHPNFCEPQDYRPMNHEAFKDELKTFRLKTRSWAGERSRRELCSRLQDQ
UniProt Q9P0B6: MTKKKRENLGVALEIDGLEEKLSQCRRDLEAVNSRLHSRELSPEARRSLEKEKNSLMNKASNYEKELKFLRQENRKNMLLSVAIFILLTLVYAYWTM
UniProt Q07108: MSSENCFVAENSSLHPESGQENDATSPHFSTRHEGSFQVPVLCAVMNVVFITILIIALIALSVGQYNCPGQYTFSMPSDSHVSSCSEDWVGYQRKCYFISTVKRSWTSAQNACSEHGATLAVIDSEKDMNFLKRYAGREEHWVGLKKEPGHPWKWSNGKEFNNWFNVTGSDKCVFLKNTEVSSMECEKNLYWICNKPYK
UniProt P51636: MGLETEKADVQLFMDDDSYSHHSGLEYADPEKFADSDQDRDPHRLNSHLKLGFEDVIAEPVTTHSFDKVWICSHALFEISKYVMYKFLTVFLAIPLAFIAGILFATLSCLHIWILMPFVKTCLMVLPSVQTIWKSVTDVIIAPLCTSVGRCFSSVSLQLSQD
UniProt P14209: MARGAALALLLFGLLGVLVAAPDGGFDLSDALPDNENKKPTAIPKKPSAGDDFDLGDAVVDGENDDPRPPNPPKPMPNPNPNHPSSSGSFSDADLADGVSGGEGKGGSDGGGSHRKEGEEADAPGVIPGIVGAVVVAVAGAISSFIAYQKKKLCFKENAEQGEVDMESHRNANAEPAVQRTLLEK
UniProt O75794: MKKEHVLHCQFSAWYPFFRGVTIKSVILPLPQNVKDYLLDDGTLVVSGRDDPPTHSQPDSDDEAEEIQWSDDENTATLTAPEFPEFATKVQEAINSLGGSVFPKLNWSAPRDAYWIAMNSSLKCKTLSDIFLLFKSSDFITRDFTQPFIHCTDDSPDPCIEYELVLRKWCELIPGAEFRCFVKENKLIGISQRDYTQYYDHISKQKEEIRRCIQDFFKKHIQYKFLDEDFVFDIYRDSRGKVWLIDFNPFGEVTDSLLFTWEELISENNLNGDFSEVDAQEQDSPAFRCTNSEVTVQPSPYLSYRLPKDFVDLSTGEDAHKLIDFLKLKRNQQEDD
UniProt O60508: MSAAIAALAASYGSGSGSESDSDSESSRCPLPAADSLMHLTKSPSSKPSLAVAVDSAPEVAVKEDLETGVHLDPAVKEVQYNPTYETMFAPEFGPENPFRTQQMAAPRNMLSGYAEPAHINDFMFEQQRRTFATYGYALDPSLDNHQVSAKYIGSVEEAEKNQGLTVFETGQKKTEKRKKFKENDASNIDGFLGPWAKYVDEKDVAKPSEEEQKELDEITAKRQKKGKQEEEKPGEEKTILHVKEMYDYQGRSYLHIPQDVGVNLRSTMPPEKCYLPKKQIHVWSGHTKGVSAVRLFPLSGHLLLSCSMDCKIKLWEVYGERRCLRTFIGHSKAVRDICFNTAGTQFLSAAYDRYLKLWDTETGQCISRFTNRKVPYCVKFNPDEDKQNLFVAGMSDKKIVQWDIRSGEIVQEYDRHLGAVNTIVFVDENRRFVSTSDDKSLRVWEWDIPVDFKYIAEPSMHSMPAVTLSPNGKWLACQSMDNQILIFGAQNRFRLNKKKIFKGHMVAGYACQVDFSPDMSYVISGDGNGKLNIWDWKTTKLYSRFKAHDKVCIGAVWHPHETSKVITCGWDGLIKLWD
UniProt Q6NZI2: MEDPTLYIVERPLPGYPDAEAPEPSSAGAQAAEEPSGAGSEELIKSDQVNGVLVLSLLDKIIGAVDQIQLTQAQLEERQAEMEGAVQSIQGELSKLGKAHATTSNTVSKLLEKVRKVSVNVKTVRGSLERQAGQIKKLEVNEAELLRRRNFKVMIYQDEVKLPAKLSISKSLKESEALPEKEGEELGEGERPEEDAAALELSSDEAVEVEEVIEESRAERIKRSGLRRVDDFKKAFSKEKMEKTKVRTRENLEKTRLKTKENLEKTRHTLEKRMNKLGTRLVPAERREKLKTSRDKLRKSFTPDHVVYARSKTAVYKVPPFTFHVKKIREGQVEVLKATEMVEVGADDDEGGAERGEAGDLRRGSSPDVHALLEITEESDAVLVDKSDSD
UniProt A6NKD9: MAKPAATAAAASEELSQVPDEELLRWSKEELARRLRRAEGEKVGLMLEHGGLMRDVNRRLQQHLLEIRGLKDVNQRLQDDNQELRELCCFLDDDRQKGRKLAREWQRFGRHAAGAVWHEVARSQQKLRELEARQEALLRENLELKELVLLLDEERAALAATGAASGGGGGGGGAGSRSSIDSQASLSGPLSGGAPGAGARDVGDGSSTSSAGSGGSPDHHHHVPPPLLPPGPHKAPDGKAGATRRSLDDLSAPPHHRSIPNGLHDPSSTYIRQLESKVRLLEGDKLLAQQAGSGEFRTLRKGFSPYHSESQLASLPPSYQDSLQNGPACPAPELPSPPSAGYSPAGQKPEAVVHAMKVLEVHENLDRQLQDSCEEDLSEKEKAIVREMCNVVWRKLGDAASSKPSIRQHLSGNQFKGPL

ibrutinib = compound: C=CC(=O)N1CCC[C@@H](n2nc(-c3ccc(Oc4ccccc4)cc3)c3c(N)ncnc32)C1 [ibrutinib]
Procedure, shortened: as §1

[1] = compound: CC(=O)c1cnc2ccc(-c3cc(Cl)c(O)c(Cl)c3)nc2c1N[C@H]1CC[C@H](CN(C)C)CC1
Procedure, shortened: as §1

ralimetinib = compound: CC(C)(C)Cn1c(N)nc2ccc(-c3[nH]c(C(C)(C)C)nc3-c3ccc(F)cc3)nc21 [ralimetinib]
Procedure, shortened: as §1

[2] = compound: CC(C)(O)CC(=O)NCCn1ccc2ncnc(Nc3ccc(Oc4cccc(C(F)(F)F)c4)c(Cl)c3)c21
Procedure, shortened: as §1

[3] = compound: CC(C)C1=C2N=C(C=C(N2N=C1)NCC3=CC=CC=C3)NCCCCCCN
Procedure, shortened: as §1

[4] = compound: CC(C)C[C@@H](C=O)NC(=O)[C@H](CC(C)C)NC(=O)[C@H](CC(C)C)NC(=O)OCc1ccccc1
Procedure, shortened: as §1

pinometostat = compound: CC(C)N(C[C@H]1O[C@@H](n2cnc3c(N)ncnc32)[C@H](O)[C@@H]1O)[C@H]1C[C@@H](CCc2nc3cc(C(C)(C)C)ccc3[nH]2)C1 [pinometostat]
Procedure, shortened: as §1

[5] = compound: CC1=C(C2=C(C=C1)C(=O)C3=CC=CC=C3N2CCCN)C
Procedure, shortened: as §1

[6] = compound: CC1=C(C=C(C=C1)NC(=O)C2=CC(=CC=C2)C(C)(C)C#N)NC3=CC4=C(C=C3)N=CN(C4=O)C
Procedure, shortened: as §1

[7] = compound: CC1=C(C=C(C=C1)NC(=O)C2=CC(=CC=C2)N(C)C)NC(=O)C3=CC=C(C=C3)O
Procedure, shortened: as §1

[8] = compound: CC1=CC=C(C=C1)SC2=C3C=C(SC3=CN=C2)C(=O)N
Procedure, shortened: as §1

[9] = compound: CC1=NC(=CC=C1)C2=C(N=C(N2)C(C)(C)C)C3=CC4=NC=CN=C4C=C3
Procedure, shortened: as §1

Nexturastat A = compound: CCCCN(Cc1ccc(C(=O)NO)cc1)C(=O)Nc1ccccc1 [Nexturastat A]
Procedure, shortened: as §1

vemurafenib = compound: CCCS(=O)(=O)Nc1ccc(F)c(C(=O)c2c[nH]c3ncc(-c4ccc(Cl)cc4)cc23)c1F [vemurafenib]
Procedure, shortened: as §1

[10] = compound: CCCS(=O)(=O)Nc1ccc(F)c(C(=O)c2c[nH]c3ncc(Cl)cc23)c1F
Procedure, shortened: as §1

[11] = compound: CCCc1cc(C)[nH]c(=O)c1CNC(=O)c1cc(-c2ccnc(N3CCN(C)CC3)c2)cc2c1cnn2C(C)C
Procedure, shortened: as §1

givinostat = compound: CCN(CC)Cc1ccc2cc(COC(=O)Nc3ccc(C(=O)NO)cc3)ccc2c1 [givinostat]
Procedure, shortened: as §1

barasertib = compound: CCN(CCCOc1ccc2c(Nc3cc(CC(=O)Nc4cccc(F)c4)[nH]n3)ncnc2c1)CCOP(=O)(O)O [barasertib]
Procedure, shortened: as §1

[12] = compound: CC1=C(C(CC(=O)N1)C2=CC=C(C=C2)C(F)(F)F)C(=O)NC3=C(C=C4C(=C3)C=NN4)F
Procedure, shortened: as §1

Target: CD63 (UniProt P08962)
- log2 fold change (IRAK-1-4 Inhibitor I): inactive: 0.022
- log2 fold change (ibrutinib): inactive: 0.036
- log2 fold change [1]: inactive: 0.032
- log2 fold change (ralimetinib): inactive: 0.047
- log2 fold change [2]: inactive: 0.006
- log2 fold change [3]: inactive: 0.081
- log2 fold change [4]: inactive: 0.056
- log2 fold change (pinometostat): inactive: 0.007
- log2 fold change [5]: inactive: 0.003
- log2 fold change [6]: inactive: -0.007
- log2 fold change [7]: inactive: 0.056
- log2 fold change [8]: inactive: 0.004
- log2 fold change [9]: inactive: 0.009
- log2 fold change (Nexturastat A): inactive: -0.072
- log2 fold change (vemurafenib): inactive: 0.064
- log2 fold change [10]: inactive: -0.007
- log2 fold change [11]: inactive: -0.125
- log2 fold change (givinostat): inactive: 0.096
- log2 fold change (barasertib): inactive: -0.025

Target: CDC25B isoform 4 (UniProt P30305)
- log2 fold change (IRAK-1-4 Inhibitor I): inactive: 0.068
- log2 fold change (ibrutinib): inactive: 0.037
- log2 fold change [1]: inactive: -0.302
- log2 fold change (ralimetinib): inactive: 0.079
- log2 fold change [2]: inactive: -0.049
- log2 fold change [3]: inactive: 0.021
- log2 fold change [4]: inactive: -0.02
- log2 fold change (pinometostat): inactive: 0.007
- log2 fold change [6]: inactive: 0.203
- log2 fold change [7]: inactive: -0.022
- log2 fold change [8]: inactive: -0.008
- log2 fold change [9]: inactive: -0.004
- log2 fold change (Nexturastat A): inactive: -0.039
- log2 fold change (vemurafenib): inactive: 0.054
- log2 fold change [10]: inactive: -0.077
- log2 fold change [11]: inactive: -0.352
- log2 fold change (givinostat): inactive: 0.032
- log2 fold change (barasertib): inactive: -0.044

Target: CCDC167 (UniProt Q9P0B6)
- log2 fold change (IRAK-1-4 Inhibitor I): inactive: -0.056
- log2 fold change (ibrutinib): inactive: 0.013
- log2 fold change (ralimetinib): inactive: -0.028
- log2 fold change [2]: inactive: 0.163
- log2 fold change [3]: inactive: -0.258
- log2 fold change [4]: inactive: 0.061
- log2 fold change (pinometostat): inactive: 0.052
- log2 fold change [5]: inactive: 0.021
- log2 fold change [6]: inactive: 0.064
- log2 fold change [7]: inactive: -0.039
- log2 fold change [8]: inactive: -0.007
- log2 fold change [9]: inactive: -0.042
- log2 fold change (Nexturastat A): inactive: 0.022
- log2 fold change [10]: inactive: -0.034
- log2 fold change [11]: inactive: 0.022
- log2 fold change (givinostat): inactive: 0.048
- log2 fold change (barasertib): inactive: -0.003

Target: CD69 (UniProt Q07108)
- log2 fold change (IRAK-1-4 Inhibitor I): inactive: 0.027
- log2 fold change (ibrutinib): inactive: 0.053
- log2 fold change [2]: inactive: -0.061
- log2 fold change (pinometostat): inactive: 0.118
- log2 fold change [12]: inactive: -0.143
- log2 fold change [6]: inactive: -0.187
- log2 fold change [8]: inactive: -0.061
- log2 fold change [9]: inactive: 0.015
- log2 fold change (Nexturastat A): inactive: 0.104
- log2 fold change (vemurafenib): inactive: -0.096
- log2 fold change [10]: inactive: -0.106
- log2 fold change [11]: inactive: -0.141
- log2 fold change (barasertib): inactive: -0.035

Target: CAV2 (UniProt P51636)
- log2 fold change (IRAK-1-4 Inhibitor I): inactive: -0.165
- log2 fold change (ibrutinib): inactive: 0.105
- log2 fold change [1]: inactive: 0.025
- log2 fold change [3]: inactive: -0.073
- log2 fold change (pinometostat): inactive: 0.178
- log2 fold change [5]: inactive: 0.005
- log2 fold change [6]: inactive: -0.164
- log2 fold change [8]: inactive: -0.018
- log2 fold change [9]: inactive: 0.078
- log2 fold change [10]: inactive: 0.087
- log2 fold change [11]: inactive: 0.001
- log2 fold change (givinostat): inactive: 0.137
- log2 fold change (barasertib): inactive: 0.175

Target: CD99 (UniProt P14209)
- log2 fold change (IRAK-1-4 Inhibitor I): inactive: 0.04
- log2 fold change (ibrutinib): inactive: 0
- log2 fold change [1]: inactive: -0.103
- log2 fold change [2]: inactive: -0.033
- log2 fold change [3]: inactive: 0.072
- log2 fold change (pinometostat): inactive: -0.094
- log2 fold change [12]: inactive: 0.015
- log2 fold change [5]: inactive: 0.123
- log2 fold change [6]: inactive: 0.003
- log2 fold change [8]: inactive: -0.134
- log2 fold change [9]: inactive: 0.005
- log2 fold change (Nexturastat A): inactive: -0.007
- log2 fold change (vemurafenib): inactive: 0.003
- log2 fold change [10]: inactive: -0.092
- log2 fold change [11]: inactive: 0.021
- log2 fold change (givinostat): inactive: 0.016
- log2 fold change (barasertib): inactive: 0.021

Target: CDC123 (UniProt O75794)
- log2 fold change (IRAK-1-4 Inhibitor I): inactive: -0.023
- log2 fold change (ibrutinib): inactive: -0.009
- log2 fold change [1]: inactive: -0.026
- log2 fold change (ralimetinib): inactive: -0.015
- log2 fold change [2]: inactive: -0.088
- log2 fold change [3]: inactive: -0.05
- log2 fold change [4]: inactive: 0.037
- log2 fold change (pinometostat): inactive: -0.009
- log2 fold change [5]: inactive: 0.001
- log2 fold change [6]: inactive: -0.033
- log2 fold change [7]: inactive: 0.006
- log2 fold change [8]: inactive: 0.043
- log2 fold change [9]: inactive: 0.048
- log2 fold change (Nexturastat A): inactive: 0.013
- log2 fold change (vemurafenib): inactive: 0.011
- log2 fold change [10]: inactive: 0.02
- log2 fold change [11]: inactive: 0.038
- log2 fold change (givinostat): inactive: -0.01
- log2 fold change (barasertib): inactive: 0.028

Target: CDC40 (UniProt O60508)
- log2 fold change (IRAK-1-4 Inhibitor I): inactive: -0.161
- log2 fold change (ibrutinib): inactive: 0.136
- log2 fold change [1]: inactive: 0.694
- log2 fold change [2]: inactive: 0.124
- log2 fold change [3]: inactive: 0.307
- log2 fold change (pinometostat): inactive: 0.216
- log2 fold change [12]: inactive: 0.062
- log2 fold change [5]: inactive: 0.103
- log2 fold change [6]: inactive: 0.043
- log2 fold change [8]: inactive: -0.07
- log2 fold change [9]: inactive: -0.191
- log2 fold change (Nexturastat A): inactive: 0.339
- log2 fold change (vemurafenib): inactive: -0.221
- log2 fold change [10]: inactive: 0.01
- log2 fold change [11]: inactive: 0.354
- log2 fold change (givinostat): inactive: 0.018
- log2 fold change (barasertib): inactive: -0.124

Target: CAVIN1 (UniProt Q6NZI2)
- log2 fold change (IRAK-1-4 Inhibitor I): inactive: -0.064
- log2 fold change (ibrutinib): inactive: -0.002
- log2 fold change [1]: inactive: 0.011
- log2 fold change (ralimetinib): inactive: 0.393
- log2 fold change [2]: inactive: 0
- log2 fold change [3]: inactive: -0.156
- log2 fold change [4]: inactive: -0.011
- log2 fold change (pinometostat): inactive: 0.2
- log2 fold change [5]: active: -0.437
- log2 fold change [6]: inactive: 0.024
- log2 fold change [7]: inactive: -0.066
- log2 fold change [8]: inactive: -0.051
- log2 fold change [9]: inactive: -0.027
- log2 fold change (Nexturastat A): inactive: 0.186
- log2 fold change (vemurafenib): inactive: -0.068
- log2 fold change [10]: inactive: -0.047
- log2 fold change [11]: inactive: 0.073
- log2 fold change (givinostat): inactive: 0.041
- log2 fold change (barasertib): inactive: -0.058

Target: CCDC85C (UniProt A6NKD9)
- log2 fold change (IRAK-1-4 Inhibitor I): inactive: 0.045
- log2 fold change (ibrutinib): inactive: -0.056
- log2 fold change [1]: inactive: 0.005
- log2 fold change (ralimetinib): inactive: -0.076
- log2 fold change [2]: inactive: -0.238
- log2 fold change [4]: inactive: 0.031
- log2 fold change (pinometostat): inactive: 0.149
- log2 fold change [5]: inactive: -0.067
- log2 fold change [6]: inactive: 0.105
- log2 fold change [7]: inactive: -0.045
- log2 fold change [8]: inactive: 0.113
- log2 fold change [9]: inactive: 0.058
- log2 fold change (Nexturastat A): inactive: 0.065
- log2 fold change (vemurafenib): inactive: -0.174
- log2 fold change [10]: inactive: -0.468
- log2 fold change [11]: inactive: -0.162
- log2 fold change (barasertib): inactive: 0.036

Source: the supplement of paper PMC10849652
